# No constants are given. Whether binding was seen depends on the method and setting. In cells and extracts the contact can be indirect. Some entries that bind do so weakly or less than the wild type. Where a sequence is shown, tags or fusion partners need not be part of it.
# The chains behind the UniProt entries cited, without tags or fusion partners.
# UniProt P49792: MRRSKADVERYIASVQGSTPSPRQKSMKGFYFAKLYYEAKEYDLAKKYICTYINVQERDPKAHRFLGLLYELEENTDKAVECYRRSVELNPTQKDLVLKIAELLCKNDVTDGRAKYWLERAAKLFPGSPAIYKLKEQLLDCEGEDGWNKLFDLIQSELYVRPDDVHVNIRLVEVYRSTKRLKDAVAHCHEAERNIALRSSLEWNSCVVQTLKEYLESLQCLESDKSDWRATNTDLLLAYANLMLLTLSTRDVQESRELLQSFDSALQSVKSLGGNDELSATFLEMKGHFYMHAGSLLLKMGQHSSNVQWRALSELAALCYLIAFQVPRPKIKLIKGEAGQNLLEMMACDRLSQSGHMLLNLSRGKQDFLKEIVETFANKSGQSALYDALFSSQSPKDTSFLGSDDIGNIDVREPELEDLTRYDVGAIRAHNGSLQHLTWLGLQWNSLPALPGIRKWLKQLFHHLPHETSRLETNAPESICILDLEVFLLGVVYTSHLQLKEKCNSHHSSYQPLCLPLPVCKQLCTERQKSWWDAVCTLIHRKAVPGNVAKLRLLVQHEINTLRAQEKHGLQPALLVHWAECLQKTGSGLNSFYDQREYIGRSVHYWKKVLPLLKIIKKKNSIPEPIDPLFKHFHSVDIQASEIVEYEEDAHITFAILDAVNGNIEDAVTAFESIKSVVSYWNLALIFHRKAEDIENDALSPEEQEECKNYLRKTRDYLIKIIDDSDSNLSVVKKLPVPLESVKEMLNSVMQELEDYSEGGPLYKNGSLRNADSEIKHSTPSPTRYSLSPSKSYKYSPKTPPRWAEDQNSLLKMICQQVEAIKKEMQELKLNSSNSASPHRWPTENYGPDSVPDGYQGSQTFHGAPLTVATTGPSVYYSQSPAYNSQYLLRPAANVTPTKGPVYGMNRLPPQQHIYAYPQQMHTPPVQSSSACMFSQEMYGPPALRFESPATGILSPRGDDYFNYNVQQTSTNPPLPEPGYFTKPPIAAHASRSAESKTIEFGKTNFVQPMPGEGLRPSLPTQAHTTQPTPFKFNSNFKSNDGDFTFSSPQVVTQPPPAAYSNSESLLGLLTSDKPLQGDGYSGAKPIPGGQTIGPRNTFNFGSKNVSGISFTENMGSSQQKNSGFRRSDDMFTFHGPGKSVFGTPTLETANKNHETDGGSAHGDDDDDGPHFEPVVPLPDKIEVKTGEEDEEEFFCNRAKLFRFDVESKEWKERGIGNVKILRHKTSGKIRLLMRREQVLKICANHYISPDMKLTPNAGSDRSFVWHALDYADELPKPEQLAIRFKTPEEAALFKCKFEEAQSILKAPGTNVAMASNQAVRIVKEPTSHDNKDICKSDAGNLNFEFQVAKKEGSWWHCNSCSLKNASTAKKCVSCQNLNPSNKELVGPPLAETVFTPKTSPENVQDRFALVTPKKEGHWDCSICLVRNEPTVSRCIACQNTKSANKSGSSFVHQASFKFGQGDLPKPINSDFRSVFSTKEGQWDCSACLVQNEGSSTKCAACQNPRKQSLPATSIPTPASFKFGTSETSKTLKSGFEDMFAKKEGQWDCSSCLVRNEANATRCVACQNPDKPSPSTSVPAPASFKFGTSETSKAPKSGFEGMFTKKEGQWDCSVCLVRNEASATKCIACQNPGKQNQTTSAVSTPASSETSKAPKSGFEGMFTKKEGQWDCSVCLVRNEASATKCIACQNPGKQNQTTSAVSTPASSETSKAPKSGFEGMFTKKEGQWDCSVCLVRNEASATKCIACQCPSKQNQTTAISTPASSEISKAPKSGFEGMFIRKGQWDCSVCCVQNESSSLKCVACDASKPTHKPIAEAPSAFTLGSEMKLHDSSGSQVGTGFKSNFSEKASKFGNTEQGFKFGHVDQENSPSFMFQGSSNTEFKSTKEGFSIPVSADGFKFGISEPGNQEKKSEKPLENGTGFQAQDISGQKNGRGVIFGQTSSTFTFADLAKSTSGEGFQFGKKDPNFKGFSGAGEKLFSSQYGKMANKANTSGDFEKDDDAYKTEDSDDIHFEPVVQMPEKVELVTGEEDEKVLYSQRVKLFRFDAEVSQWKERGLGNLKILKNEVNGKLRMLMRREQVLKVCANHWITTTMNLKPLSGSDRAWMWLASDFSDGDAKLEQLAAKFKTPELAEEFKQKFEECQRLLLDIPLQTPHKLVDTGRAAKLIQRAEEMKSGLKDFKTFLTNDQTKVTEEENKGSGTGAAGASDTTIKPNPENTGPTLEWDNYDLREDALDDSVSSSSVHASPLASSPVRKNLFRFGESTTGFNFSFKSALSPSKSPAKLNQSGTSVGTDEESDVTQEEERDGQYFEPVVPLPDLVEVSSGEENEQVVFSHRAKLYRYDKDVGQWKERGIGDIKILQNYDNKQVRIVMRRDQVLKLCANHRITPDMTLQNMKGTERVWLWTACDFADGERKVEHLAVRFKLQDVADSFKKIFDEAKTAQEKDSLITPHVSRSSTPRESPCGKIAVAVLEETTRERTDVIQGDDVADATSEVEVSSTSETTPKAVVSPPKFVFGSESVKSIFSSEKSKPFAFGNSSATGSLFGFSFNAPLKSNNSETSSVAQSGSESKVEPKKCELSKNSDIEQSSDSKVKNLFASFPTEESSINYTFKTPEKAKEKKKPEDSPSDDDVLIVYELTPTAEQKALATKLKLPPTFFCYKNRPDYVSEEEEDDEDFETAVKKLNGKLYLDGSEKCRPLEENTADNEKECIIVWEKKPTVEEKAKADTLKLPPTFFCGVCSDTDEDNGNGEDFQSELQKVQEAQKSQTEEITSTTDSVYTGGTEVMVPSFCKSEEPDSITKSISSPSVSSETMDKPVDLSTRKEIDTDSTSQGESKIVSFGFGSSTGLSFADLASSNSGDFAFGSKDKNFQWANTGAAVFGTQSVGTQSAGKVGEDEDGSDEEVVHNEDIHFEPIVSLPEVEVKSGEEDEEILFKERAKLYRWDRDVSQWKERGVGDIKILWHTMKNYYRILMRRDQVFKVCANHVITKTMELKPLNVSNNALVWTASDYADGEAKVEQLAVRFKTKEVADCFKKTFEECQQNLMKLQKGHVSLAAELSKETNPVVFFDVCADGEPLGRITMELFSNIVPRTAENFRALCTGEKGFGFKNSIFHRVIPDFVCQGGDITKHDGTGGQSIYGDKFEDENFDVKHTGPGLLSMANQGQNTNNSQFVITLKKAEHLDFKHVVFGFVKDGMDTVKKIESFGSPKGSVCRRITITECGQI
# B1: Flag-tagged human DNA polymerase lambda (Flag-Polλ WT) (enzyme, UniProt Q9UGP5 1-575)
# chain: MDPRGILKAFPKRQKIHADASSKVLAKIPRREEGEEAEEWLSSLRAHVVRTGIGRARAELFEKQIVQHGGQLCPAQGPGVTHIVVDEGMDYERALRLLRLPQLPPGAQLVKSAWLSLCLQERRLVDVAGFSIFIPSRYLDHPQPSKAEQDASIPPGTHEALLQTALSPPPPPTRPVSPPQKAKEAPNTQAQPISDDEASDGEETQVSAADLEALISGHYPTSLEGDCEPSPAPAVLDKWVCAQPSSQKATNHNLHITEKLEVLAKAYSVQGDKWRALGYAKAINALKSFHKPVTSYQEACSIPGIGKRMAEKIIEILESGHLRKLDHISESVPVLELFSNIWGAGTKTAQMWYQQGFRSLEDIRSQASLTTQQAIGLKHYSDFLERMPREEATEIEQTVQKAAQAFNSGLLCVACGSYRRGKATCGDVDVLITHPDGRSHRGIFSRLLDSLRQEGFLTDDLVSQEENGQQQKYLGVCRLPGPGRRHRRLDIIVVPYSEFACALLYFTGSAHFNRSMRALAKTKGMSLSEHALSTAVVRNTHGCKVGPGRVLPTPTEKDVFRLLGLPYREPAERDW
# Assays:
# [1] = molecular target: HA-tagged RanBP2 (HA-RanBP2) (UniProt P49792); experiment: proximity ligation
# [2] = molecular target: HA-tagged RanBP2 (HA-RanBP2) (UniProt P49792); experiment: co-IP
binder,measurement,setting,value
B1,binding,[1],binds
same,binding,[2],binds
